# The list shows a part of the results. Shown are side measurements of this screen, not its main read-out; they come without a call. Most of these compounds were active or inconclusive in the main read-out, so they are no random draw. Potencies come from curve fits of mixed quality, noted in brackets.
# Experiment: IkB Signaling
# Details: ABC-DLBCL IkBa-CBG/CBR dual luciferase ratio (green luciferase fused to IkBa over red control in OCI-Ly3 lymphoma cells), 4 h
# Method in brief: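 Luminescence ratio of IκBα-fused green versus native red beetle luciferase in OCI-Ly3 cells, 4 h post-doxycycline with compound; red signal alone, scaled from basal (0%) to zero light (-100%), flagged nonspecific or cytotoxic effects.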
# [1] = measured here: control luc red channel unless noted
# [2] = measured here: IkB-luc green channel
# [3] = measured here: control luc red channel
smiles,measurement,setting,value
Cc1ccc(SCC(=O)N(Cc2nc(-c3ccccc3)no2)C(C)C)cc1,AC50,[1],"31.6 µM [falling, single point]"
CC(C)C[C@H]1C(=O)N2CCC[C@@H]2[C@]2(O)O[C@](NC(=O)[C@@H]3C=C4c5cccc6[nH]c(Br)c(c56)C[C@H]4N(C)C3)(C(C)C)C(=O)N12,AC50,[1],"39.8 µM [falling, single point]"
Cc1oc(C(C)(C)C)cc1C(=O)Nc1ccc2c(c1)OCCO2,AC50,[1],"31.6 µM [falling, single point]"
Cc1ccc(-c2c(C(=O)N(C)Cc3ccccc3)oc(=O)c3ccccc23)cc1,AC50,[1],"25.1 µM [falling, single point]"
COc1ccccc1NC(=O)C1=C(C)Nc2c(C(=O)Nc3cccc(C)c3)cnn2C1c1ccccc1C (stereo not drawn),AC50,[1],"10 µM [falling, partial curve]"
Cc1ccc(/C=C/c2nc3ccccc3n2S(=O)(=O)c2cccc(Cl)c2)cc1,AC50,[1],"1 µM [falling, full curve]"
COc1ccc(S(=O)(=O)Cc2ccc(C(=O)N3CCN(c4cc(Cl)ccc4C)CC3)o2)cc1,AC50,[1],"7.94 µM [falling, partial curve]"
CCOC(=O)c1ccc(NC(=O)Cn2cc(C(=O)c3cccs3)c3ccccc32)cc1,AC50,[1],"3.98 µM [falling, full curve]"
COc1cc2nc(Nc3ccc(C)c(C)c3)nc(N)c2cc1OC,AC50,[1],"25.1 µM [falling, partial curve, poor fit]"
Cc1nc2ccn(Cc3cccs3)c(=O)c2cc1C(=O)NCc1ccc(Cl)cc1,AC50,[1],"12.6 µM [falling, partial curve, poor fit]"
COc1ccc(-n2nnnc2S(=O)(=O)Cc2ccc(C(=O)O)cc2)cc1,AC50,[2],"12.6 µM [falling, partial curve]"
same,AC50,[3],"2.51 µM [falling, full curve]"
CCCCOC(=O)c1c(C)oc2ccc(NS(=O)(=O)c3ccc(F)cc3C)cc12,AC50,[1],"25.1 µM [falling, partial curve]"
Cn1c(C(=O)N2CCCC(C(=O)N3CCN(c4ccccc4)CC3)C2)cc2sccc21 (stereo not drawn),AC50,[1],"15.8 µM [falling, partial curve]"
CCCCNC(=O)CSC1=Nc2ccccc2C2=NC(CCC(=O)NCc3ccccc3OC)C(=O)N12 (stereo not drawn),AC50,[1],"0.00501 µM [rising, full curve, poor fit]"
Cc1cccc(OC(C)C(=O)Nc2ncn[nH]2)c1 (stereo not drawn),AC50,[1],"20 µM [rising, partial curve, poor fit]"
CCC(=O)Nc1nc2c(OC)ccc(OC)c2s1,AC50,[1],"10 µM [falling, partial curve]"
CCc1ccc(NC(=O)c2ccc3c(O)c(S(=O)(=O)c4ccc(Cl)cc4)c(=O)[nH]c3c2)cc1,AC50,[1],"15.8 µM [falling, partial curve]"
COCc1cc(=O)n2c([nH]c3ccccc32)c1C#N,AC50,[1],"1 µM [falling, partial curve]"
CCN(CC)c1cc(C)c2cc(NC(=O)c3cccc(OC)c3)ccc2n1,AC50,[1],"5.01 µM [falling, partial curve]"
Cc1ccccc1CN1CCN(S(=O)(=O)c2ccc(F)cc2)CC1,AC50,[1],"15.8 µM [falling, partial curve]"
CCOC(=O)C1CCCN(S(=O)(=O)c2ccc(F)c(C(=O)Nc3ccc(F)c(F)c3)c2)C1 (stereo not drawn),AC50,[1],"15.8 µM [falling, single point]"
CC(=O)c1cc2c(cc1N/C(=N/S(=O)(=O)c1ccc(C)cc1)c1ccccc1)OCO2,AC50,[1],"6.31 µM [rising, partial curve]"
CCOC(=O)c1c(NC(=O)/C=C/c2ccc(OCC)cc2)sc(C)c1C,AC50,[1],"1 µM [rising, full curve]"
COC(=O)C(NC(=O)CC(C)C)(Nc1nc2c(s1)CCCC2)C(F)(F)F (stereo not drawn),AC50,[1],"39.8 µM [falling, partial curve]"
c1cn(CCCNc2ncnc3nc[nH]c23)cn1,AC50,[1],"0.00251 µM [falling, full curve]"
COc1ccc(NC(=O)CSc2nc(-c3cccs3)cc(C(F)(F)F)n2)cc1OC,AC50,[1],"1 µM [rising, full curve]"
Cc1ccc2c(c1)cc(CN(Cc1ccco1)C(=O)COc1ccccc1)c1nnnn12,AC50,[1],"25.1 µM [falling, partial curve, poor fit]"
Cc1ccc(-c2nc3c4ccccc4n(CC(=O)N4CCN(c5ccccc5F)CC4)c(=O)n3n2)cc1,AC50,[1],"5.01 µM [rising, single point]"
Cc1ccc(NC(=O)CN(C)S(=O)(=O)c2ccc3c(c2)n(C)c(=O)c(=O)n3C)cc1C,AC50,[1],"20 µM [falling, single point]"
Cc1ccc(-n2nnnc2CNC(=O)C(C)(C)C)cc1C,AC50,[1],"0.00501 µM [falling, full curve, poor fit]"
Cc1nc(SC(C)C(=O)Nc2ccccc2C)cc(-c2ccccc2)n1 (stereo not drawn),AC50,[1],"20 µM [falling, partial curve]"
CCn1c(COc2cccc(C)c2)nnc1SCC(=O)CC(=O)Nc1ccccc1OC,AC50,[1],"25.1 µM [falling, partial curve]"
COc1ccc(NS(=O)(=O)c2ccc(OC)c3ccccc23)cn1,AC50,[1],"15.8 µM [falling, partial curve]"
Cc1ccc(-c2noc(C(C)NS(=O)(=O)c3ccc(C)cc3)n2)cc1 (stereo not drawn),AC50,[1],"6.31 µM [falling, single point]"
O=C(Nc1cccc(Cl)c1)c1cnc2sc(N3CCCC3)nn2c1=O,AC50,[1],"0.251 µM [falling, full curve]"
Cc1ccc(C)c(CN2CCCN(Cc3ccc(F)cc3)S2(=O)=O)c1,AC50,[1],"25.1 µM [falling, single point]"
COc1cc(CNC(=O)c2ccc(Cn3nc(C)c(Cl)c3C)o2)cc(OC)c1,AC50,[1],"15.8 µM [falling, partial curve]"
COc1ccc(S(=O)(=O)N2CCN(c3cc(-c4ccccc4)nc4ncnn34)CC2)cc1,AC50,[1],"10 µM [falling, partial curve]"
Cc1nc(-n2nc(C)c(Cc3ccccc3Cl)c2C)sc1C(=O)Nc1ccccc1F,AC50,[1],"1 µM [falling, partial curve]"
Cc1cc(C)nc(N(C#N)Cc2ccc(Br)cc2)n1,AC50,[1],"25.1 µM [falling, partial curve]"
CCOC(=O)Cn1c(=O)n(CC2CCCO2)c2nc(-c3ccc(C)cc3)nc(C(N)=O)c21 (stereo not drawn),AC50,[1],"39.8 µM [falling, single point]"
COc1ccccc1NC(=O)C(=O)NCC(c1ccc2c(c1)OCO2)N1CCOCC1 (stereo not drawn),AC50,[1],"6.31 µM [falling, partial curve]"
Cc1onc(-c2ccccc2Cl)c1C(=O)Nc1cccc2cccnc12,AC50,[1],"3.98 µM [falling, full curve, poor fit]"
COc1ccc(Cl)cc1NC(=O)Cc1ccc(NC(=O)N2CCCCc3ccccc32)cc1,AC50,[1],"31.6 µM [falling, single point]"
Cc1ccccc1OCc1nc2ccccc2c(=O)n1/N=C/c1ccco1,AC50,[1],"20 µM [falling, partial curve]"
Cc1ccc(CN2CCSc3ccc(C(=O)N4CCN(c5ccccc5)CC4)cc32)cc1,AC50,[1],"3.98 µM [falling, full curve]"
O=C(CC1N=C2c3ccccc3N=C(SCc3ccc(Cl)cc3)N2C1=O)NCc1cccs1 (stereo not drawn),AC50,[1],"12.6 µM [falling, partial curve]"
Cc1ccc(-n2c(Cc3ccccc3)nnc2SCc2nc(-c3cccs3)no2)cc1,AC50,[1],"31.6 µM [falling, partial curve]"
O=c1oc(-c2cccs2)nc2scc(-c3cccs3)c12,AC50,[1],"3.98 µM [falling, partial curve]"
Cc1ccc(C)c(N2CCN(C(=O)c3ccc(NC(=O)c4nsc5ccccc45)cc3)CC2)c1,AC50,[1],"0.794 µM [falling, full curve]"
COc1cc(C(=O)Oc2c(Sc3ccccc3)c(C)nn2-c2ccccc2)cc(OC)c1OC,AC50,[1],"7.94 µM [falling, full curve]"
Cc1ccc(/C=C/c2onc(C)c2S(=O)(=O)N2CCC(C(=O)Nc3ccc(C)c(N(C)C)c3)CC2)cc1,AC50,[1],"0.794 µM [falling, full curve, poor fit]"
Cc1ccc(CNC(=O)CCCCCn2c(=O)[nH]c3ccccc3c2=O)cc1,AC50,[1],"0.398 µM [falling, full curve, poor fit]"
Cc1nn(-c2ccccc2)c(OC(=O)C(C)C)c1Sc1ccc(Cl)cc1,AC50,[1],"3.16 µM [falling, partial curve]"
CC1CCCN(CCCNC(=O)c2ccc3c(c2)N(Cc2ccccc2F)C(=O)c2ccccc2S3(=O)=O)C1 (stereo not drawn),AC50,[1],"31.6 µM [falling, single point]"
Oc1c(CN2CCCCC2)cc(Br)c2cccnc12,AC50,[2],"12.6 µM [rising, partial curve]"
same,AC50,[3],"12.6 µM [falling, partial curve]"
Cc1ccccc1-c1nc(CN2CCC(C(=O)NCc3ccccc3Cl)CC2)c(C)o1,AC50,[1],"20 µM [falling, partial curve]"
CC(C)(C)c1ccc(NC(=O)C2CCCN(c3cnccn3)C2)cc1 (stereo not drawn),AC50,[1],"25.1 µM [falling, partial curve]"
CCOc1ccc(N2CC(NC(=O)CCc3ccccc3)CC2=O)cc1 (stereo not drawn),AC50,[1],"3.98 µM [falling, single point]"
CCn1c(C)c(C2N3CC4(C)CN2CC(C)(C3)C4=O)c2ccccc21 (stereo not drawn),AC50,[1],"39.8 µM [falling, single point]"
O=C(CC(Sc1ccccc1)c1cccs1)c1ccco1 (stereo not drawn),AC50,[1],"39.8 µM [rising, single point] [measured here: IkB-luc green channel]"

# Part of the list above in a different format:
smiles | measurement | setting | value
COc1cc(CNC(=O)c2ccc(Cn3nc(C)c(Cl)c3C)o2)cc(OC)c1 | AC50 | [1] | 15.8 µM [falling, partial curve]
Cc1nc(-n2nc(C)c(Cc3ccccc3Cl)c2C)sc1C(=O)Nc1ccccc1F | AC50 | [1] | 1 µM [falling, partial curve]
Cc1ccccc1-c1nc(CN2CCC(C(=O)NCc3ccccc3Cl)CC2)c(C)o1 | AC50 | [1] | 20 µM [falling, partial curve]
